Experimental data: patent US20230056335A1, “TOPICAL FORMULATION CONTAINING RAPAMYCIN” (NOBELPHARMA CO., LTD., priority 2020, published 2023)
At least one structure is not confirmed: it was looked up by name or label, or the drawing left a doubt.

What was measured:
[1] = Effects of mixing amount of BHT on stability of sirolimus, HPLC quantification; assay type: physicochemical
Description: Quantification of sirolimus was performed by conducting an HPLC test under the following conditions and comparing the area of a sirolimus peak in a test substance and the area of a sirolimus peak in a sirolimus standard.
Detector: ultraviolet absorption photometer (detection wavelength: 278 nm)
Column: stainless steel tube with internal diameter of 4.6 mm and length of 250 mm filled with octadecylsilyl-silica gel for chromatography
Column temperature: constant temperature of about 40° C.
Mobile phase: acetonitrile/0.02 mol/L ammonium acetate buffer (pH 6.0)=13/7
Solutions were prepared by mixing various concentrations of BHT into the ethanol solution of sirolimus, and the solutions were stored at 40° C. and 50° C. for 2 weeks. Quantification of sirolimus was performed on samples after the storage by the same method as that in Reference Example 2 to calculate residual ratios.

[2] = Solubility of sirolimus in mixed solution of each solvent and propylene glycol (visual observation); assay type: physicochemical; settings: mixed solutions of ethylene glycol salicylate, diethyl sebacate, and triacetin and propylene glycol
[3] = BHT mixing amount 1 %, 40° C. 2 W
[4] = BHT mixing amount 1 %, 50° C. 2 W
[5] = BHT mixing amount 3 %, 40° C. 2 W
[6] = BHT mixing amount 3 %, 50° C. 2 W
[7] = BHT mixing amount 5 %, 40° C. 2 W
[8] = BHT mixing amount 5 %, 50° C. 2 W
[9] = BHT mixing amount 9 %, 40° C. 2 W
[10] = BHT mixing amount 9 %, 50° C. 2 W

SMILES: CO[C@H]1C[C@@H]2CC[C@@H](C)[C@@](O)(O2)C(=O)C(=O)N2CCCC[C@H]2C(=O)O[C@H]([C@H](C)C[C@@H]2CC[C@@H](O)[C@H](OC)C2)CC(=O)[C@H](C)/C=C(\C)[C@@H](O)[C@@H](OC)C(=O)[C@H](C)C[C@H](C)/C=C/C=C/C=C/1C [sirolimus]
- Initial amount ([1]; BHT mixing amount 1 %): 97.34%
- Quantified value [1, 3]: 90.86%
- Residual ratio [1, 3]: 93.3%
- Quantified value [1, 4]: 87.15%
- Residual ratio [1, 4]: 89.5%
- Initial amount ([1]; BHT mixing amount 3 %): 96.73%
- Quantified value [1, 5]: 90.67%
- Residual ratio [1, 5]: 93.7%
- Quantified value [1, 6]: 85.91%
- Residual ratio [1, 6]: 88.8%
- Initial amount ([1]; BHT mixing amount 5 %): 98.06%
- Quantified value [1, 7]: 94.89%
- Residual ratio [1, 7]: 96.8%
- Quantified value [1, 8]: 88.42%
- Residual ratio [1, 8]: 90.2%
- Initial amount ([1]; BHT mixing amount 9 %): 95.65%
- Quantified value [1, 9]: 94.25%
- Residual ratio [1, 9]: 98.5%
- Quantified value [1, 10]: 84.91%
- Residual ratio [1, 10]: 88.8%
- Dissolution of sirolimus in mixed solutions [2]: Dissolution of sirolimus was confirmed
